The values below come from publication PMC12040169 (PLOS Biology, 2025).

Some of the results follow.

The test has as its system T1, CTL2-GFP (C. trachomatis L2/434/Bu, GFP-expressing).
T1 construct: L2/434/Bu, GFP-expressing
The arrangement: species or system HeLa; Intracellular C. trachomatis growth in HeLa cells, bulk GFP fluorescence relative to DMSO. The settings on record: bulk GFP, single well; 28.5 h, 10 µM; inhibitor.
For the compound `COc1cncc(-c2cc(Nc3ccc(OC)c(OC)c3)ncn2)c1` [CBK090824], the “% of control remaining” value was 94.7055%.

As to `CN(CCc1ccccc1)Cc1nc2ccccc2c(=O)[nH]1` [CBK283204], the “% of control remaining” value is 93.6625%.

Take `O=C(O)c1cccnc1SC1CC(=O)N(c2ccc(F)cc2)C1=O` (centres unmarked) [CBK265582]: the “% of control remaining” value was 107.666%.

As to `Cc1ccc(-c2nccnc2OCc2ccc3c(c2)OCO3)c(C)c1` [CBK106982], the “% of control remaining” value was 87.9356%.

Turning to `CC1C(=O)N2CCCc3cc(S(=O)(=O)NCc4ccc5c(c4)OCO5)cc1c32` (centres unmarked) [CBK294419], the “% of control remaining” value was determined as 128.906%.

On to `NS(=O)(=O)c1cccc(NC(=O)c2cccs2)c1` [CBK024419], for which the “% of control remaining” value was found to be 125.198%.

For `Nc1ncnc(Nc2ccc(F)cc2Cl)c1[N+](=O)[O-]` [CBK267255], the “% of control remaining” value is on record as 152.771%.

Take `CCCCN(C=O)c1c(CC)nc2c(OCc3ccccc3C)cccn12` [CBK147639]: the “% of control remaining” value amounted to 92.8226%.

With `CC(=O)c1ccc(-c2cnc(N)c(NC3CCCCC3)n2)s1` [CBK063596], the “% of control remaining” value stood at 165.778%.

As to `O=C(O)COc1ccc(S(=O)(=O)Nc2ccc(F)cc2)cc1` [CBK268442], the “% of control remaining” value was determined as 109.369%.

As for `Cc1cc(-c2cccs2)c(C#N)c(SCc2cccnc2)n1` [CBK270172], the “% of control remaining” value was determined as 153.271%.

On to `Cc1nc2cc(OCc3nc(C(=O)NCC(O)CO)co3)ccc2s1` (centres unmarked) [CBK307067], for which the “% of control remaining” value worked out at 122.847%.

For `COc1cccc(CN2CCC(c3ncc(C(=O)Nc4ccc(F)cc4)c(C)n3)CC2)c1` [CBK285630], the “% of control remaining” value is 111.382%.

On to `COc1ccc(-c2cc(C(=O)NCc3ccc(F)cc3)cnc2-c2cccc(C)c2)cc1` [CBK036702], for which the “% of control remaining” value turned out to be 166.729%.

As to `CCc1c(C)nc2c(C(=O)NCCCN3CCCC3=O)cnn2c1C` [CBK162128], the “% of control remaining” value was 120.84%.

Regarding `O=S(=O)(Cc1ccc(-c2nc(-c3ccncc3)no2)o1)c1ccccc1` [CBK288579], the “% of control remaining” value is 145.951%.

In the case of `N#Cc1cccc(C(=O)NCCc2nnc3n2CCCCC3)c1` [CBK259813], the “% of control remaining” value worked out at 76.8627%.

For `CCCCOc1cccc(C(=O)Nc2ccc(-c3nc4ccccc4o3)c(O)c2)c1` [CBK263435], the “% of control remaining” value came out at 120.935%.

With `O=C(Nc1nccc(N2CCNCC2)n1)c1cccs1` [CBK004305T], the “% of control remaining” value was found to be 115.415%.

In the case of `OC(CNc1nccnc1-c1ccccc1Cl)COc1ccccc1` (centres unmarked) [CBK037085], the “% of control remaining” value is on record as 104.263%.

Consider `COC(=O)Cc1nc(NS(=O)(=O)c2ccc(Oc3cccc(Cl)c3C#N)cc2)sc1C` [CBK000744], for which the “% of control remaining” value is recorded as 104.083%.

As to `O=C(Nc1cccnc1N1CCNCC1)c1ccoc1` [CBK029417T], the “% of control remaining” value is listed as 197.828%.

For the compound `O=C(O)CCCn1c(=O)c2cc3c(=O)n(CCCC(=O)O)c(=O)c3cc2c1=O` [CBK265748], the “% of control remaining” value is 161.046%.

Turning to `NNC(=O)Cn1c(-c2ccccn2)nc2ccccc21` [CBK263489], the “% of control remaining” value stood at 122.975%.

In the case of `c1ccc(COc2nccnc2-c2cccs2)nc1` [CBK107055], the “% of control remaining” value is recorded as 95.6741%.

Regarding `CC(=O)NC(CC(=O)NCc1cccnc1-n1cncn1)c1ccc(Cl)cc1` (centres unmarked) [CBK298314], the “% of control remaining” value stood at 91.9787%.

On to `Cc1sc2nc(Cc3ccccc3)n(C3CCN(C(=O)c4ccco4)CC3)c(=O)c2c1C` [CBK286317], for which the “% of control remaining” value was found to be 93.6376%.

With `Cc1nn(C(C)CC(=O)Nc2ccnn2C(C)C)c(C)c1Cl` (centres unmarked) [CBK281537], the “% of control remaining” value was determined as 119.813%.

In the case of `CCCC1C2C=CC(C2)C1/C=N/O` (centres unmarked) [CBK009671], the “% of control remaining” value was 123.778%.

Consider `O=C(/C=N/O)Nc1cc(C(F)(F)F)ccc1Cl` [CBK288405], for which the “% of control remaining” value is on record as 117.87%.

On to `O=C(CSCC(=O)Nc1ccc2ccccc2c1)NCC1CCCO1` (centres unmarked) [CBK058183], for which the “% of control remaining” value was 142.317%.

Take `Cc1ccc(C)c(NC(=O)N[C@@H](CC(C)C)C(=O)O)c1` [CBK286678]: the “% of control remaining” value is listed as 137.773%.

In the case of `CC1=NN(c2ccc(S(N)(=O)=O)cc2)C(=O)/C1=C\c1ccc(-c2ccc(S(N)(=O)=O)cc2)o1` [CBK263476], the “% of control remaining” value is recorded as 111.519%.

As to `Cn1c(O)c(CCNc2cc([C@H]3C[C@@H](O)C3)nc(N)n2)cnc1=O` [CBK306956], the “% of control remaining” value came out at 135.442%.

As for `Cc1ccc(C(=O)COC(=O)CCN2C(=O)C3C4CCC(C4)C3C2=O)cc1[N+](=O)[O-]` (centres unmarked) [CBK264096], the “% of control remaining” value was determined as 129.019%.

Consider `CCNc1cncc(-c2ccc(C(N)=O)cc2)n1` [CBK065414], for which the “% of control remaining” value amounted to 156.473%.

On to `O=C(O)CC1SC(Nc2ccccc2F)=NC1=O` (centres unmarked) [CBK059096], for which the “% of control remaining” value amounted to 97.2471%.

Consider `O=C(O)c1cccc(-n2ncc(-c3ccsc3)n2)c1` [CBK112859], for which the “% of control remaining” value is recorded as 117.442%.

For the compound `CN1C[C@H]2N(C)C(=O)c3ccccc3C(=O)[C@@]2(C)C1` [CBK283482], the “% of control remaining” value is on record as 124.676%.

Turning to `COCc1ccc(C(=O)N2CCC(c3cc4cnccc4[nH]3)CC2)o1` [CBK283073], the “% of control remaining” value was found to be 84.207%.

Take `COCCn1c(=O)n(Cc2ccccc2F)c2cccnc21` [CBK283965]: the “% of control remaining” value turned out to be 126.751%.

For `Cc1nc(SCCC(=O)Nc2ccccc2C#N)nc2cc3c(cc12)CCC3` [CBK268812], the “% of control remaining” value is recorded as 138.233%.

For `Cc1cc2cc(C(=O)N3CCC(c4c(C(=O)NC(C)C)sc5ccccc45)C3)ccc2o1` (centres unmarked) [CBK285873], the “% of control remaining” value came to 23.3335%.

Turning to `O=S(=O)(Nc1nc(-c2sccc2Cl)cs1)c1cc(Br)c(Cl)s1` [CBK200030], the “% of control remaining” value is reported as 128.724%.

Consider `COc1ccc(C(=O)Nc2nc3c(OC)ccc(C)c3s2)cc1` [CBK287615], for which the “% of control remaining” value is reported as 120.114%.

As for `CC1Cc2ccccc2N1C(=O)Cn1c(CCCO)nc2ccccc21` (centres unmarked) [CBK297548], the “% of control remaining” value is 134.586%.

As for `COc1cc(-c2cn3ccnc3c(N[C@H](CO)C(C)C)n2)cc(OC)c1OC` [CBK066220], the “% of control remaining” value is listed as 144.544%.

As to `Cc1n[nH]c(C)c1CC(=O)NC(Cc1ccsc1)c1ccccn1` (centres unmarked) [CBK285271], the “% of control remaining” value was 139.085%.

Take `CN(C)Cc1c(O)ccc2c(=O)c(Oc3ccc(-c4ccccc4)cc3)c(C(F)(F)F)oc12` [CBK264519]: the “% of control remaining” value stood at 127.037%.

For the compound `COc1cc(S(=O)(=O)N2CCN(S(=O)(=O)c3cccc([N+](=O)[O-])c3)CC2)ccc1Cl` [CBK266285], the “% of control remaining” value is listed as 117.106%.
